Results taken from PubChem BioAssay AID256 (DTP/NCI, 2004).
The list shows only some results of the screen, not a fair sample: it gathers tests that were run many times, whatever their T/C, doses with no T/C, and many T/C values between a quarter and a half above the control. Other doses and runs of a compound stand elsewhere. T/C gives the treated animals as a percentage of the vehicle group. Some entries give survivors of the animals treated and no T/C: the source holds a T/C of zero for them, seemingly a mark for toxic or unscored doses. Some doses without a T/C left all or most animals alive at the check, yet need not have been tolerated: survival well below the control is almost never listed, so the zero probably covers shortened survival too. Survivors were counted at the toxicity check, usually on the fifth day, unless a day is given; later deaths do not show. Schedules are NCI's codes, read here as Q, the interval in days (D) or hours (H), X, the number of doses. Where survival is the endpoint, this PubChem deposit counts one and a half times the control or more as active, and values a quarter to a half above the control carry no call in these data; other NCI protocols may use other cut-offs. Some doses were run more than once; their values stand side by side, smallest first. Additions like (4×) count equal records among those shown. Some T/C values are followed by the survivors on the day toxicity was checked, most often the fifth; where none is given, no animal had died by that day.

Test system: CD2F1 mice, L1210 leukemia ip, survival T/C
Test: NCI In Vivo Anticancer Drug Screen. Data for tumor model L1210 Leukemia (intraperitoneal) in CD2F1 (CDF1) mice
Conditions: higher T/C = longer survival
How it was run: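 Vehicle-treated tumor-bearing mice served as controls (C) for compound-treated mice (T). Reported figure is T divided by C.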

[1] = T/C endpoint: mean survival time, dose: 400.0 mg/kg/injection, schedule: Q01DX001 (ip), vehicle: saline
[2] = T/C endpoint: mean survival time, dose: 400.0 mg/kg/injection, schedule: Q04DX003 (ip), vehicle: saline
[3] = T/C endpoint: mean survival time, dose: 400.0 mg/kg/injection, schedule: Q04DX003 (ip), vehicle: saline with Tween-80

For `Cc1c(N)nc([C@H](CC(N)=O)NC[C@H](N)C(N)=O)nc1C(=O)N[C@H](C(=O)N[C@H](C)[C@@H](O)[C@H](C)C(=O)N[C@H](C(=O)NCCc1nc(-c2nc(C(=O)NCCC[S+](C)C)cs2)cs1)[C@@H](C)O)C(OC1OC(CO)C(O)C(O)C1OC1OC(CO)C(O)C(OC(N)=O)C1O)c1cnc[nH]1` (stereo partly specified), the T/C (T/C endpoint: mean survival time, dose: 4.0 mg/kg/injection, schedule: Q01DX009 (ip), vehicle: saline, evaluated on day 5) was 98, 102, 111 % of control, the T/C (T/C endpoint: mean survival time, dose: 4.0 mg/kg/injection, schedule: Q01DX009 (ip), vehicle: saline, evaluated on day 30) was 101 [5 of 6 alive], 104, 109 % of control and the T/C (T/C endpoint: mean survival time, dose: 8.0 mg/kg/injection, schedule: Q01DX009 (ip), vehicle: saline, evaluated on day 5) was 102 and 106 % of control (2×). The T/C (T/C endpoint: mean survival time, dose: 8.0 mg/kg/injection, schedule: Q01DX009 (ip), vehicle: saline, evaluated on day 30) was 103, 110, 115 % of control, the T/C (T/C endpoint: mean survival time, dose: 16.0 mg/kg/injection, schedule: Q01DX009 (ip), vehicle: saline, evaluated on day 5) was 102 and 104 % of control and the T/C (T/C endpoint: mean survival time, dose: 16.0 mg/kg/injection, schedule: Q01DX009 (ip), vehicle: saline, evaluated on day 30) was 98 (2×) and 110 % of control. The survivor count (T/C endpoint: mean survival time, dose: 32.0 mg/kg/injection, schedule: Q01DX009 (ip), vehicle: saline) was 10 of 10, the survivor count (T/C endpoint: mean survival time, dose: 64.0 mg/kg/injection, schedule: Q01DX009 (ip), vehicle: saline) was 9 of 10 and the T/C (T/C endpoint: median survival time, dose: 2.0 mg/kg/injection, schedule: Q01DX009 (ip), vehicle: saline, evaluated on day 30) was 100, 104, 107 % of control. For the same molecule, the T/C (T/C endpoint: median survival time, dose: 2.0 mg/kg/injection, schedule: Q01DX009 (ip), vehicle: saline, evaluated on day 60) was 107 % of control, the T/C (T/C endpoint: median survival time, dose: 4.0 mg/kg/injection, schedule: Q01DX009 (ip), vehicle: saline, evaluated on day 5) was 100 % of control and the T/C (T/C endpoint: median survival time, dose: 4.0 mg/kg/injection, schedule: Q01DX009 (ip), vehicle: saline, evaluated on day 30) was 100, 107, 118 % of control. The T/C (T/C endpoint: median survival time, dose: 4.0 mg/kg/injection, schedule: Q01DX009 (ip), vehicle: saline, evaluated on day 60) was 105 % of control, the T/C (T/C endpoint: median survival time, dose: 8.0 mg/kg/injection, schedule: Q01DX009 (ip), vehicle: saline, evaluated on day 5) was 93 % of control and the T/C (T/C endpoint: median survival time, dose: 8.0 mg/kg/injection, schedule: Q01DX009 (ip), vehicle: saline, evaluated on day 30) was 100, 109, 118 % of control. The T/C (T/C endpoint: median survival time, dose: 8.0 mg/kg/injection, schedule: Q01DX009 (ip), vehicle: saline, evaluated on day 60) was 110 % of control, the survivor count (T/C endpoint: median survival time, dose: 8.0 mg/kg/injection, schedule: Q03HX024 (ip), vehicle: saline) was 6 of 10 and the T/C (T/C endpoint: median survival time, dose: 16.0 mg/kg/injection, schedule: Q01DX009 (ip), vehicle: saline, evaluated on day 5) was 93 % of control. For the same molecule, the T/C (T/C endpoint: median survival time, dose: 16.0 mg/kg/injection, schedule: Q01DX009 (ip), vehicle: saline, evaluated on day 30) was 100 and 116 % of control (2×), the T/C (T/C endpoint: median survival time, dose: 16.0 mg/kg/injection, schedule: Q01DX009 (ip), vehicle: saline, evaluated on day 60) was 109 % of control and the T/C (T/C endpoint: median survival time, dose: 32.0 mg/kg/injection, schedule: Q01DX009 (ip), vehicle: saline, evaluated on day 5) was 90 % of control. The T/C (T/C endpoint: median survival time, dose: 32.0 mg/kg/injection, schedule: Q01DX009 (ip), vehicle: saline, evaluated on day 30) was 94, 113, 118 % of control, the T/C (T/C endpoint: median survival time, dose: 32.0 mg/kg/injection, schedule: Q01DX009 (ip), vehicle: saline, evaluated on day 60) was 114 % of control and the survivor count (T/C endpoint: median survival time, dose: 32.0 mg/kg/injection, schedule: Q03HX008 (ip), vehicle: saline) was 7 of 10. The survivor count (T/C endpoint: median survival time, dose: 64.0 mg/kg/injection, schedule: Q01DX009 (ip), vehicle: saline) was 8 of 8.
For `Nc1cccc2cnccc12`, the survivor count (T/C endpoint: mean survival time, dose: 400.0 mg/kg/injection, schedule: Q01DX009 (ip), vehicle: saline with Tween-80) was 2 of 6.
In the case of `C1CCC(CCC2CCCC[N-]2)[N-]C1.[I][Zn][I]` (stereo unspecified), the survivor count [1] is reported as 0 of 3.
With `COc1cccc(CN2CCNCC2)c1` the survivor count (T/C endpoint: mean survival time, dose: 200.0 mg/kg/injection, schedule: Q01DX005 (ip), vehicle: water) was 0 of 6 and the survivor count (T/C endpoint: mean survival time, dose: 400.0 mg/kg/injection, schedule: Q01DX005 (ip), vehicle: water) was 0 of 6.
`Cc1cc2c(cc1C)C(=O)c1ccccc1C2=O` was tested, and the survivor count (T/C endpoint: mean survival time, dose: 200.0 mg/kg/injection, schedule: Q01DX009 (ip), vehicle: saline) was 2 of 6 and the survivor count [2] was 0 of 6.
For `Cc1ccc(S(=O)(=O)SCC(=O)c2ccc([N+](=O)[O-])cc2)cc1`, the survivor count (T/C endpoint: mean survival time, dose: 400.0 mg/kg/injection, schedule: Q01DX009 (ip), vehicle: saline sonified) was 2 of 6.
`NC1=Nc2ccccc2CS1` was tested, and the survivor count (T/C endpoint: mean survival time, dose: 150.0 mg/kg/injection, schedule: Q01DX001 (ip), vehicle: saline) was 3 of 6 and the survivor count (T/C endpoint: mean survival time, dose: 300.0 mg/kg/injection, schedule: Q01DX001 (ip), vehicle: saline) was 0 of 6.
`COc1cc(C2=N/C(=C\c3cc(Br)ccc3O)C(=O)O2)cc(OC)c1OC` was tested, and the T/C (T/C endpoint: mean survival time, dose: 200.0 mg/kg/injection, schedule: Q04DX002 (ip), vehicle: saline with Tween-80) was 126 % of control [2 of 3 alive].
`CCNc1ncnc2nncnc12` was tested, and the survivor count (T/C endpoint: mean survival time, dose: 200.0 mg/kg/injection, schedule: Q01DX001 (ip), vehicle: carboxymethylcellulose (CMC)) was 2 of 6 and the survivor count (T/C endpoint: mean survival time, dose: 400.0 mg/kg/injection, schedule: Q01DX001 (ip), vehicle: carboxymethylcellulose (CMC)) was 0 of 6.
For `CC(=O)CC(Br)CBr` (stereo unspecified), the survivor count (T/C endpoint: mean survival time, dose: 200.0 mg/kg/injection, schedule: Q04DX003 (ip), vehicle: saline with Tween-80) was 4 of 6 and the survivor count [3] was 0 of 6.
`O=C(O)c1ccccn1` was tested, and the survivor count (T/C endpoint: mean survival time, dose: 200.0 mg/kg/injection, schedule: Q04HX027 (ip), vehicle: saline) was 0 of 5.
`CCCCCCCC(=O)N/N=C(\CO)[C@]1(O)Cc2c(O)c3c(c(O)c2[C@@H](OC2CC(N)C(O)C(C)O2)C1)C(=O)c1c(OC)cccc1C3=O` (stereo partly specified) was tested, and the T/C (T/C endpoint: mean survival time, dose: 6.0 mg/kg/injection, schedule: Q01DX009 (ip), vehicle: suspension in saline) was 131 % of control, the T/C (T/C endpoint: mean survival time, dose: 12.0 mg/kg/injection, schedule: Q01DX009 (ip), vehicle: saline) was 138 % of control and the T/C (T/C endpoint: mean survival time, dose: 24.0 mg/kg/injection, schedule: Q01DX009 (ip), vehicle: saline) was 126 % of control. For the same molecule, the T/C (T/C endpoint: mean survival time, dose: 24.0 mg/kg/injection, schedule: Q01DX009 (ip), vehicle: suspension in saline) was 141 % of control, the T/C (T/C endpoint: mean survival time, dose: 48.0 mg/kg/injection, schedule: Q01DX009 (ip), vehicle: saline) was 148 % of control and the T/C (T/C endpoint: mean survival time, dose: 96.0 mg/kg/injection, schedule: Q01DX009 (ip), vehicle: suspension in saline) was 146 % of control.
In the case of `COc1cc2c3c(c1)-c1c(ccc(OC)c1OC)CC3N(CCCl)CC2` (stereo unspecified), the survivor count (T/C endpoint: mean survival time, dose: 100.0 mg/kg/injection, schedule: Q04DX003 (ip), vehicle: water) is reported as 2 of 6, the survivor count (T/C endpoint: mean survival time, dose: 200.0 mg/kg/injection, schedule: Q04DX003 (ip), vehicle: water) is reported as 0 of 6 and the survivor count (T/C endpoint: mean survival time, dose: 400.0 mg/kg/injection, schedule: Q04DX003 (ip), vehicle: water) is reported as 0 of 6.
For `Cc1nc(SCc2ccccc2)[nH]c(=O)c1CCO`, the survivor count [3] was 5 of 6.
In the case of `CCN1CCC(CC)(CN2c3ccccc3Sc3ccc(Cl)cc32)C1` (stereo unspecified), the survivor count [2] is reported as 0 of 6.
In the case of `c1ccc2c(c1)Sc1ccccc1N2CCCNC1=NCCO1`, the survivor count (T/C endpoint: mean survival time, dose: 200.0 mg/kg/injection, schedule: Q01DX001 (ip), vehicle: saline with Tween-80) is reported as 3 of 6 and the survivor count (T/C endpoint: mean survival time, dose: 400.0 mg/kg/injection, schedule: Q01DX001 (ip), vehicle: saline with Tween-80) is reported as 0 of 6.
In the case of `COC(COC(=O)N1CCN(C=O)CC1)C1=C(N2CC2)C(=O)C(C)=C(N2CC2)C1=O` (stereo unspecified), the T/C (T/C endpoint: median survival time, dose: 0.75 mg/kg/injection, schedule: Q01DX005 (ip), vehicle: saline) is reported as 126 % of control, the T/C (T/C endpoint: median survival time, dose: 1.5 mg/kg/injection, schedule: Q01DX005 (ip), vehicle: saline) is reported as 135 % of control and the T/C (T/C endpoint: median survival time, dose: 2.16 mg/kg/injection, schedule: Q01DX005 (ip), vehicle: saline) is reported as 140 % of control. For the same molecule, the survivor count (T/C endpoint: median survival time, dose: 10.0 mg/kg/injection, schedule: Q01DX005 (ip), vehicle: saline) was 6 of 6 and the survivor count (T/C endpoint: median survival time, dose: 16.67 mg/kg/injection, schedule: Q01DX005 (ip), vehicle: saline) was 4 of 6.
For `CC1CCC2(OC1)OC1C(O)C3C4CCC5CC(OC6OC(CO)C(OC7OC(CO)C(O)C(OC8OCC(O)C(O)C8O)C7OC7OC(CO)C(O)C(OC8OC(CO)C(O)C(O)C8O)C7O)C(O)C6O)C(O)CC5(C)C4CCC3(C)C1C2C` (stereo unspecified), the survivor count (T/C endpoint: mean survival time, dose: 100.0 mg/kg/injection, schedule: Q01DX001 (ip), vehicle: saline) was 0 of 3, the survivor count (T/C endpoint: mean survival time, dose: 200.0 mg/kg/injection, schedule: Q01DX001 (ip), vehicle: saline) was 0 of 3 and the survivor count [1] was 0 of 3.
